# Library screening results

From ChEMBL document CHEMBL3988442, “University of Dundee, Small-Polar-MMV Screening Library” (2021).

The filed quantity is “Percent Effect” (%). The controls that fix the scale are not given in the record; negative values are as filed. The compounds are a random part of those screened. Two or more numbers in one place are separate tests of the same structure; such repeats can differ widely.

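Viability assay of Plasmodium falciparum sporozoites; the read-out is not stated. The concentration is filed as 10 mM, unlikely as a test dose, so the dose is not known. The record gives no direction; compounds that gave an IC50 in retests scored well above the rest, so higher reads as lower viability. Strong results were mostly tested again. Of about 34,000 compounds tested this way, about 280 (0.84%) reached 50% or more in at least one test.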

SMILES | effect
O=C(O)C(F)(F)F.O=C(c1cscn1)N1CCc2ncnc(-c3cccnc3)c2CC1 | 14.56
O=C(O)C1(Cc2cc(-c3ccc(F)cc3F)no2)CCOCC1 | 12.44
O=C(Cn1ccc2c(Cl)cccc21)N1CCC2(CC1)OCCO2 | 5.717
CC(C)NC(=O)N1CCC2(CC1)C(=O)NCCN2Cc1ccccc1.O=C(O)C(F)(F)F | 16.42
CN1CCC(NC(=O)NCc2csc(Br)c2)CC1 | -12.45
Cc1cc(C)n(C2CN(CC(=O)NC3CCS(=O)(=O)C3)C2)n1 (centres undefined) | -1.48 and -19.09 and -35.87
COc1ccccc1CC(=O)N1CCC(NCc2ccncc2)CC1 | 1.877
Cc1oc(C(=O)O)cc1S(=O)(=O)Nc1cc(Br)ccc1Cl | 2.602
Cc1nc2ccnn2c(C)c1CCC(=O)N1CCN(C2CC2)CC1 | -0.2445
CCS(=O)(=O)N1CCc2c(CN3CCOCC3)cncc2C1.Cl.Cl | 12.65
Cc1nc(CC(=O)N2CCn3c(nnc3C(C)C)C2)cs1 | 6.921
O=C(c1cnc(C2CC2)s1)N1CCCCC1Cn1cccn1 (centres undefined) | -11.69
CCC(=O)Nc1ccc2c(ccn2CCOC)c1 | -9.904
CN1CCN(c2ccccc2CNC(=O)Cc2ccccc2F)CC1 | -3.158
Cc1nn(C)c2c(=O)n(CC(=O)Nc3cc(Cl)cc(Cl)c3)nnc12 | 4.167
Cn1cc(CN2CCCC3(CCN(Cc4cccnc4)C3=O)C2)cn1 (centres undefined) | -1.6
O=C(c1ccn(-c2cccc(Cl)c2)n1)N1CCN(C2CC2)CC1 | 8.013
O=C(NCCSc1ccccc1)[C@H]1CNC[C@H](C(=O)N2CCOCC2)C1 | -22.31
Cc1cnn(CC2CCCN2c2nn3cc(C)nc3s2)c1 (centres undefined) | -4.057
CCCOCCCNc1nccc(-c2cn(C)nc2C)n1 | -14.45
N#Cc1ccccc1NC(=O)c1ccc2c(c1)OCO2 | -0.8951
Cc1cnn(CC2CCCN2C(=O)c2nccc3ccccc23)c1 (centres undefined) | -17.11
CN1CCc2nc(C3CCCCN3Cc3ccccc3Cl)ncc2C1 (centres undefined) | -5.542
CCCSCC(=O)Nc1ncn(CC(=O)NCc2ccccc2)n1 | -4.077
COc1ccc(C(=O)N(CCC#N)Cc2ccccn2)cc1 | -12.99
Cc1nnc2n1CCN(Cc1nc(-c3ccoc3)no1)C2 | 6.219
CCc1ccc(CN(C)c2ccc(-c3nc(COC)no3)cn2)nc1 | -0.614
CC(=O)N[C@H]1CCO[C@@H](c2cccc(NC(=O)C(C)(C)C)c2)C1 | 12.38 and 11.09 and 3.549
COCCCN1CCCC1c1noc(C2CC2)n1 (centres undefined) | 14.56
O=C(O)C(F)(F)F.[H][C@@]12CCN(CCc3ccccc3)C[C@@]1([H])O[C@H](C(=O)NC1CCC1)C2 | 2.691
CC[C@H](C)[C@H](N)C(=O)N1CC(=O)c2sc(NC3CCCCC3)nc2C1 | 15.16
Cc1cc(C(=O)NC2CCN(C(=O)Nc3cccnc3)CC2)c(C)o1 | 0.1112
[H][C@]12CC[C@]([H])(CN(Cc3ccncc3)C1)N(C(=O)CSc1ncccn1)C2 | -15.94
Cc1ncnc2c1CCN(C(=O)c1cccn1C)CC2 | 4.601
Oc1nc(N2CCOCC2)nc2c1CCN(Cc1ccc(F)cc1)CC2 | -0.3331
Cn1cc(-c2nnn3c2COC(CNC(=O)c2cccs2)C3)cn1 (centres undefined) | -19.43
O=C(O)C(F)(F)F.c1ccc(OC2COC3(CCN(Cc4ccccn4)CC3)C2)cc1 (centres undefined) | 9.288
O=C(NCC1CC1)C1CCC2(CCN(C(=O)c3ccco3)CC2)O1 (centres undefined) | 1.264
CN(C)[C@H]1CN(C(=O)CCc2cccc(F)c2)C[C@@H]1C1CC1 | -8.769
N#Cc1c(N)nc2c(c1C1CCOC1)CCc1cc(O)ccc1-2 (centres undefined) | 4.476
O=C(NCCCn1nc2ccccn2c1=O)NC1CCC(O)CC1 (centres undefined) | 8.146
O=C(CCc1ccc(F)cc1)NS(=O)(=O)c1ccc2c(c1)OCCCO2 | 7.348
CNc1cncc(C2CCCN2Cc2ccccn2)n1 (centres undefined) | -17.42
CCCC1(CO)CCCN(C(=O)CNC(C)=O)C1 (centres undefined) | 1.253
[H][C@]12CC[C@]([H])(CN(C(=O)C3CCC3)C1)N(C(=O)c1ccccc1SC)C2 | -387.7 and -403.4
[H][C@]12C[C@H](NC(=O)c3cc[nH]n3)[C@@]1([H])CN(S(=O)(=O)c1ccc(C)cc1)C2 | 13.19
CSc1sc(NC(=O)C2CCCN(C(N)=O)C2)nc1C (centres undefined) | -4.281
O=C(c1ccc(N2CCCC2)nn1)N1CCCC(n2cccn2)C1 (centres undefined) | 1.385
CCS(=O)(=O)N1CCCC(c2nc3ccccc3n2C(C)C)C1 (centres undefined) | -6.746
Cc1nn(-c2ccccc2)cc1C(=O)N1CCCC(n2ccnc2)C1 (centres undefined) | -0.3286
COCCN1CCC(Cc2cnc(-c3ccccc3C(=O)O)cn2)CC1 | -0.3997
Cc1ncsc1C(=O)Nc1cccc(OCC(F)F)n1 | -0.3382
Cc1cnn(CC2CN(Cc3nc(-c4cccnc4)no3)CCO2)c1 (centres undefined) | 8.95
CC(C)C(=O)NCC(=O)N(C)C1CCCN(CCc2ccccc2)C1 (centres undefined) | -11.88
O=C(Nc1ncn(CC(=O)N2CCCCCC2)n1)C1CCCC1 | 0.7183
CC(C)CC1SCC(=O)Nc2c1cnn2C(C)C (centres undefined) | -1.535
CC(C)CN1CCC2(CC1)CC(NS(C)(=O)=O)c1ccccc1O2.O=C(O)C(F)(F)F (centres undefined) | 1.842
O=c1n(CCSCc2ccccc2F)nc2ccccn12 | -9.017
COc1ccc(CN2CCc3nnc(COCCN(C)C)n3CC2)cc1.O=C(O)C(F)(F)F.O=C(O)C(F)(F)F | 19.73
CCSCCC(=O)Nc1ncn(Cc2cccnc2)n1 | -10.09
CC1CCCCN1Cc1ccc(-c2ccccc2C(=O)O)cc1 (centres undefined) | -8.009
O=C(O)C(F)(F)F.O=C1CC2(CCN(CC3CCOC3)CC2)c2ccccc2N1CC1CC1 (centres undefined) | 5.342
O=C(COCC(F)(F)F)Nc1nncs1 | -5.714
COCCN(C)c1ccc(NCc2ccsc2)nc1 | 67.62 and 57.94
[H][C@]12CC[C@]([H])(CN(S(=O)(=O)c3cn(C)cn3)C1)N(Cc1ccccn1)C2 | -0.08651
Cn1cc(CN2CCCC23CCN(S(C)(=O)=O)CC3)cn1 | -8.68

4 of the entries, repeated:

- O=C(O)C1(Cc2cc(-c3ccc(F)cc3F)no2)CCOCC1 | 12.44%
- Cc1cnn(CC2CCCN2c2nn3cc(C)nc3s2)c1 (centres undefined) | -4.057%
- O=C(NCCSc1ccccc1)[C@H]1CNC[C@H](C(=O)N2CCOCC2)C1 | -22.31%
- CN(C)[C@H]1CN(C(=O)CCc2cccc(F)c2)C[C@@H]1C1CC1 | -8.769%